These are yes or no findings as the source states them, for the method shown. In cells and extracts the contact can be indirect. Some entries that bind do so weakly or less than the wild type.
Experiments:
GFP-RPA2 S/T→D (human) = GFP-RPA2 S/T→D (human) (UniProt P15927); experiment: co-IP; anti-GFP antibody and protein G-sepharose from benzonase-treated U-2 OS lysates (TNE buffer, 150 mM NaCl, 0.1% Igepal, 4 °C); naive U-2 OS cells as control; blot with anti-RPA2 antibody
GFP-RPA2 WT (human) = GFP-RPA2 WT (human) (UniProt P15927); experiment: as above

By UniProt entry, the sequences of proteins in these tests, tags left out. Where a name states a change or a piece, a line headed by the entry shows the natural chain unless it says otherwise. Chains listed by the source or under a name are the forms on record and can include a tag or linker.
UniProt P15927: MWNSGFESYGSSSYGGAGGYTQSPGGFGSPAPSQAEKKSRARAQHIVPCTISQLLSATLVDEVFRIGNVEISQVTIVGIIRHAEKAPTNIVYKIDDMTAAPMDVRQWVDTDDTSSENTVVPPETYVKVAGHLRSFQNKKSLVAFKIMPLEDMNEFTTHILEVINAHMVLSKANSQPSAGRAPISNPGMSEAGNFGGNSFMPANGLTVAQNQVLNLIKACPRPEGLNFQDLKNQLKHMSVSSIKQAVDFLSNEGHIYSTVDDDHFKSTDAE
GFP-RPA2 S/T→D (P15927, form named): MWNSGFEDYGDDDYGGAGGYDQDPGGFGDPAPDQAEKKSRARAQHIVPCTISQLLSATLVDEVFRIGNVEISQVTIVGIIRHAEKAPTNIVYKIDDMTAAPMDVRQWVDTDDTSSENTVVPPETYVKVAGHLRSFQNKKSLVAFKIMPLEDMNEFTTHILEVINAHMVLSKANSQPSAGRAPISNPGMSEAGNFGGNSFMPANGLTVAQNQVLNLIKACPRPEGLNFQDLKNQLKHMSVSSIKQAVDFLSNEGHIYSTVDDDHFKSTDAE

| binding (GFP-RPA2 S/T→D (human)) | binding (GFP-RPA2 WT (human)) | Substance |
| --- | --- | --- |
| binds | – | endogenous RPA2 (from UniProt P15927 1-270) |
| – | binds | endogenous RPA2 (from UniProt P15927 1-270) (other; other documents disagree on this pair) |
